These are yes or no findings as the source states them, for the method shown. In cells and extracts the contact can be indirect. Some results given as binding are weak or reduced against the parent protein; the word gives no strength. For some assays here: Sequences can lack the tags named with a protein.
Assays:
[1] = biological target: T1, endogenous Programmed cell death 4 (PDCD4) (human (endogenous in HCT116 and HEK293)) (UniProt Q53EL6); experiment: co-IP; endogenous proteins; IP lysis buffer (25 mM Tris pH 7.6, 150 mM NaCl, 1% Nonidet P-40, 1 mM EDTA), antibody 4 h, protein A/G agarose overnight, washed thrice with PBS, western blot; HCT116 also under serum starvation or 2DG (5 mM) and oligomycin (2.5 uM) for four hours; HEK293 Atg7-WT and Atg7-KO
T1 sequence: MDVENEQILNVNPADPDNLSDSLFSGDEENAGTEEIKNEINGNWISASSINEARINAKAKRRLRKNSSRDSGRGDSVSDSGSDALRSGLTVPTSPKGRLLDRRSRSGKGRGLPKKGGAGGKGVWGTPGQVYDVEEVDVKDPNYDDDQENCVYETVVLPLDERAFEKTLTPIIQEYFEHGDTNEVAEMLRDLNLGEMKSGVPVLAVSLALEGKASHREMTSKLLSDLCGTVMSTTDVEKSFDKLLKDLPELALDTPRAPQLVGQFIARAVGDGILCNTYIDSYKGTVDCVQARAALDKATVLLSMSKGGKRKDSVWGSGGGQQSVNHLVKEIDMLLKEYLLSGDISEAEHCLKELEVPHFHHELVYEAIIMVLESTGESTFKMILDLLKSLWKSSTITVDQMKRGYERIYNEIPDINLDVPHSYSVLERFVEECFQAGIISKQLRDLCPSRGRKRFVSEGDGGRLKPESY

By UniProt entry, the sequences of proteins in these tests, tags left out.
UniProt P31749: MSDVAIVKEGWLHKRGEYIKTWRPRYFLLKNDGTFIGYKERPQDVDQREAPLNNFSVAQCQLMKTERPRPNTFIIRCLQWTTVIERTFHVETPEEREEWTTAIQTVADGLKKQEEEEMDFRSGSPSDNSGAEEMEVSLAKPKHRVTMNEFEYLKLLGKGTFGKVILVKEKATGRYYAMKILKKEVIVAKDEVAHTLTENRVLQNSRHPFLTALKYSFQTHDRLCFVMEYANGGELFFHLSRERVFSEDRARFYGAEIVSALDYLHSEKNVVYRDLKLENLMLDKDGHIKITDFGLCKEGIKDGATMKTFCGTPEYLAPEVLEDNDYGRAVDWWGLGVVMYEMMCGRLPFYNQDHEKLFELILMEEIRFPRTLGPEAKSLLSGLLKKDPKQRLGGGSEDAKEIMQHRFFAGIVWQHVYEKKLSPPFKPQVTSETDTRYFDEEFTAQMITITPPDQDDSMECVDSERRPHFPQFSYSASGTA

[2] = biological target: T2, 3*Flag-PDCD4 expressed in HEK293 cells (UniProt Q53EL6); experiment: co-IP; HEK293 or HEK293 Atg7-KO cells transfected with GFP-Atg7, GFP-Atg7 D476AQ398A or control vector and the indicated plasmids; with or without 2DG (5 mM) and oligomycin (2.5 uM) for four hours; western blot
T2 sequence: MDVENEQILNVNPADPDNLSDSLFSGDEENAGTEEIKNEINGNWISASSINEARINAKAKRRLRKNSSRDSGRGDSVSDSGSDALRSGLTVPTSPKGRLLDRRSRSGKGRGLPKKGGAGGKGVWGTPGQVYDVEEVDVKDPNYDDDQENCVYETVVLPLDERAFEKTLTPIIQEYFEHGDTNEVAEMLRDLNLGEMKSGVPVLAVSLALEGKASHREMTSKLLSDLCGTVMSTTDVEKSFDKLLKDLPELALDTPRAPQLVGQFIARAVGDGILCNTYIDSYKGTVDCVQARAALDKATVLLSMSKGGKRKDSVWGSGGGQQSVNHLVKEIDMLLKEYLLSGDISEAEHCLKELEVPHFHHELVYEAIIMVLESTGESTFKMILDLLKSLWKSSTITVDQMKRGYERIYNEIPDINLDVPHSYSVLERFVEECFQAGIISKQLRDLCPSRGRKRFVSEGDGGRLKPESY

GFP-Atg7 = biological target: T3, GFP-Atg7 (UniProt O95352); experiment: as above
T3 sequence: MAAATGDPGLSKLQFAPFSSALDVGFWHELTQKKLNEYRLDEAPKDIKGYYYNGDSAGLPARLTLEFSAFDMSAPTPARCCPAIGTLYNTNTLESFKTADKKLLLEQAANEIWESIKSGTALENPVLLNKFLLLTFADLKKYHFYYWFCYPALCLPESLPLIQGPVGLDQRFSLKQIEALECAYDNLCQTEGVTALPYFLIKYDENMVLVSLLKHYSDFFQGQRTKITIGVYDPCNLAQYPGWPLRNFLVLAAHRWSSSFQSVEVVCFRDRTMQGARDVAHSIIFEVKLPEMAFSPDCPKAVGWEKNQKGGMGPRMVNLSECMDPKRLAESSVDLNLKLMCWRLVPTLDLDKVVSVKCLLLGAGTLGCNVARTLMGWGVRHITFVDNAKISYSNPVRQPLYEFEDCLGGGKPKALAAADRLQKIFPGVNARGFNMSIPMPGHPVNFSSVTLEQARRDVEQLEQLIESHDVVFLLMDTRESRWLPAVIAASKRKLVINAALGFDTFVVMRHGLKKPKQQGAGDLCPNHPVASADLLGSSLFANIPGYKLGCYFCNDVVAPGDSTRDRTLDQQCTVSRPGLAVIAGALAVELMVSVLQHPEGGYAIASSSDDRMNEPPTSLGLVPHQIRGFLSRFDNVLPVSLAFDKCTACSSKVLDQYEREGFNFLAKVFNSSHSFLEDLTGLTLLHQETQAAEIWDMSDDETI

[3] = biological target: T4, endogenous Atg7 (autophagy-related gene 7) (human (endogenous in HCT116)) (UniProt O95352); experiment: co-IP; endogenous proteins; IP lysis buffer (25 mM Tris pH 7.6, 150 mM NaCl, 1% Nonidet P-40, 1 mM EDTA), antibody 4 h, protein A/G agarose overnight, washed thrice with PBS, western blot; HCT116 also under serum starvation or 2DG (5 mM) and oligomycin (2.5 uM) for four hours; HEK293 Atg7-WT and Atg7-KO
T4 sequence: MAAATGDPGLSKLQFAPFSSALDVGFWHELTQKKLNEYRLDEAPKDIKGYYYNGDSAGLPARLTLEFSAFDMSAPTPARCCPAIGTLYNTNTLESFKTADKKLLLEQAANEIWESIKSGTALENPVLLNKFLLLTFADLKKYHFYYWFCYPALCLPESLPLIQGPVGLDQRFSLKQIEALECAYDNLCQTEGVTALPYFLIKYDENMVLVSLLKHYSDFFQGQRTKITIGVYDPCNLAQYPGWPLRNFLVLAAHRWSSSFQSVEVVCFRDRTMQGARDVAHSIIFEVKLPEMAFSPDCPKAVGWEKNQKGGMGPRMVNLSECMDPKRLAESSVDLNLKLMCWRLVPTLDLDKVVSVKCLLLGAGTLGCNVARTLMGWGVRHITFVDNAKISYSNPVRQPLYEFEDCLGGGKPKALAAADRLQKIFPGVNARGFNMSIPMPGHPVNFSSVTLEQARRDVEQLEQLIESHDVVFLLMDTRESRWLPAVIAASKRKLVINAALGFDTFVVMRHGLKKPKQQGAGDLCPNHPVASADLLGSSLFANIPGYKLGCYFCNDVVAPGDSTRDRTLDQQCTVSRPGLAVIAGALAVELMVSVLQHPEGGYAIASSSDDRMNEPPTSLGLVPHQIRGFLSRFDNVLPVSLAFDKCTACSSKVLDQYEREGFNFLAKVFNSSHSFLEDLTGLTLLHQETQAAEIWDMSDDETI

GST-fused Atg7 protein = biological target: T5, GST-fused Atg7 protein (UniProt O95352); experiment: pull-down; GST fusion protein on GST sepharose beads incubated with in vitro translated 3*Flag protein for four hours, washed thrice with PBS, western blot; only the target purified
T5 sequence: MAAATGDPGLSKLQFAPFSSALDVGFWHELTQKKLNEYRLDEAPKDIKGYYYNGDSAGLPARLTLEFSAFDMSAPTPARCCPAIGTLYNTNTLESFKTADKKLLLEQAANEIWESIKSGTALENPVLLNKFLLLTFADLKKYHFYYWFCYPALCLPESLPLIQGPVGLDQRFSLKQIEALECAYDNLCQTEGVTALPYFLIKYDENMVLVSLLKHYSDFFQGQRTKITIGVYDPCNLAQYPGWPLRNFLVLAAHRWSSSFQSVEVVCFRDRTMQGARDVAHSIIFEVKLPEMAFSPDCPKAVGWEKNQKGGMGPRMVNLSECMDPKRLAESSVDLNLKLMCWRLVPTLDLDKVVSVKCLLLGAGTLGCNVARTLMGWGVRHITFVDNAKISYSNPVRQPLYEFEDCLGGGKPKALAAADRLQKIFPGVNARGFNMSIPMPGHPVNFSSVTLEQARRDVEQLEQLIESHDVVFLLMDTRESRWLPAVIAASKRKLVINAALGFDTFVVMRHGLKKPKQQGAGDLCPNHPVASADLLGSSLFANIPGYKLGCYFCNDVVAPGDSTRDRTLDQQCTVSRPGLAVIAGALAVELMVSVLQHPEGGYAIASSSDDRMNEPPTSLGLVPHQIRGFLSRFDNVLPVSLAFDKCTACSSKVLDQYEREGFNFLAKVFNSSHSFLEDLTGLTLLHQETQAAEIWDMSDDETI

endogenous AKT (from UniProt P31749 1-480) (enzyme)
binding [1]: binds | binding [2]: binds | binding (GFP-Atg7): binds

B1: endogenous Programmed cell death 4 (PDCD4) (protein, UniProt Q53EL6 1-469)
chain: MDVENEQILNVNPADPDNLSDSLFSGDEENAGTEEIKNEINGNWISASSINEARINAKAKRRLRKNSSRDSGRGDSVSDSGSDALRSGLTVPTSPKGRLLDRRSRSGKGRGLPKKGGAGGKGVWGTPGQVYDVEEVDVKDPNYDDDQENCVYETVVLPLDERAFEKTLTPIIQEYFEHGDTNEVAEMLRDLNLGEMKSGVPVLAVSLALEGKASHREMTSKLLSDLCGTVMSTTDVEKSFDKLLKDLPELALDTPRAPQLVGQFIARAVGDGILCNTYIDSYKGTVDCVQARAALDKATVLLSMSKGGKRKDSVWGSGGGQQSVNHLVKEIDMLLKEYLLSGDISEAEHCLKELEVPHFHHELVYEAIIMVLESTGESTFKMILDLLKSLWKSSTITVDQMKRGYERIYNEIPDINLDVPHSYSVLERFVEECFQAGIISKQLRDLCPSRGRKRFVSEGDGGRLKPESY
binding [3]: binds

B2: in vitro translated 3*Flag-PDCD4 (protein, UniProt Q53EL6 1-469)
chain: MDVENEQILNVNPADPDNLSDSLFSGDEENAGTEEIKNEINGNWISASSINEARINAKAKRRLRKNSSRDSGRGDSVSDSGSDALRSGLTVPTSPKGRLLDRRSRSGKGRGLPKKGGAGGKGVWGTPGQVYDVEEVDVKDPNYDDDQENCVYETVVLPLDERAFEKTLTPIIQEYFEHGDTNEVAEMLRDLNLGEMKSGVPVLAVSLALEGKASHREMTSKLLSDLCGTVMSTTDVEKSFDKLLKDLPELALDTPRAPQLVGQFIARAVGDGILCNTYIDSYKGTVDCVQARAALDKATVLLSMSKGGKRKDSVWGSGGGQQSVNHLVKEIDMLLKEYLLSGDISEAEHCLKELEVPHFHHELVYEAIIMVLESTGESTFKMILDLLKSLWKSSTITVDQMKRGYERIYNEIPDINLDVPHSYSVLERFVEECFQAGIISKQLRDLCPSRGRKRFVSEGDGGRLKPESY
binding (GST-fused Atg7 protein): binds

Source: PMC10713595
